In paper PMC5108317:
These are yes or no findings as the source states them, for the method shown. In cells and extracts the contact can be indirect. Binding can be weak; no strength is given. Tags and fused reporters may be left off the sequences shown.

The chains behind the UniProt entries cited, without tags or fusion partners. Where a name states a change or a piece, a line headed by the entry shows the natural chain unless it says otherwise.
UniProt Q676U5: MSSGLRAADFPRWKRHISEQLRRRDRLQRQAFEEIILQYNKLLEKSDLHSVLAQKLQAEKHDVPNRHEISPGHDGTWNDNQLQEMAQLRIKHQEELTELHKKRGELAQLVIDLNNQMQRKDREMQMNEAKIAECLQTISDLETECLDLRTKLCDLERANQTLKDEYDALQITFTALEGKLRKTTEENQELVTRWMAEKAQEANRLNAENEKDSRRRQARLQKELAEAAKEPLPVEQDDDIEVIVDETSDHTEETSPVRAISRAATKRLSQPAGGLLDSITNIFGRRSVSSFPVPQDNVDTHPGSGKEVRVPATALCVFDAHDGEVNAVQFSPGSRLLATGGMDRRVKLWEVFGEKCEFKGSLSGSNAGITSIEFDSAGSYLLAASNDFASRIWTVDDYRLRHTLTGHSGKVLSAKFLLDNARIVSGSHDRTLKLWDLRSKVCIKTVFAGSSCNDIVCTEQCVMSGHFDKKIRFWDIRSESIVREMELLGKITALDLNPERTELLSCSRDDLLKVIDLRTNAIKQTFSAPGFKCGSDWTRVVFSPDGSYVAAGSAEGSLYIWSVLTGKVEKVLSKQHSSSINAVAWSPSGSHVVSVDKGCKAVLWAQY

T1: GST-EVA1A60–152 (human) (UniProt Q9H8M9)
T1 sequence: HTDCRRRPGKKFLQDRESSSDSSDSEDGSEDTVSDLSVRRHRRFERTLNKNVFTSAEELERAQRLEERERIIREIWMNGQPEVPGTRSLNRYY


Legend:
GST-EVA1A60–152 (human) = target: T1, GST-EVA1A60–152 (human); assay: pull-down; GST or GST-EVA1A fusion proteins on glutathione-Sepharose 4B beads, mixed with whole-cell lysates of plasmid-transfected (HeLa) cells for 4 h at 4 °C, five washes, western blot; only the target purified
FLAG-ATG16L1^Δ300 = FLAG-ATG16L1^Δ300 (UniProt Q676U5); assay: co-IP; HeLa cells co-transfected for 24 h; total cell extracts in RIPA lysis buffer (1 mg per sample), IP with anti-FLAG or control mIgG and protein G sepharose, 4 h at 4 °C, five washes; GFP and FLAG detected by western blot

Row | binding (GST-EVA1A60–152 (human)) | binding (FLAG-ATG16L1^Δ300) | Molecule
1 | binds | – | FLAG-ATG16L1^Δ300 (from UniProt Q676U5) (domain or fragment)
2 | – | binds | GFP-EVA1A (protein, UniProt Q9H8M9 1-152) MRLPLSHSPEHVEMALLSNILAAYSFVSENPERAALYFVSGVCIGLVLTLAALVIRISCHTDCRRRPGKKFLQDRESSSDSSDSEDGSEDTVSDLSVRRHRRFERTLNKNVFTSAEELERAQRLEERERIIREIWMNGQPEVPGTRSLNRYY
